Experimental data from publication PMC10313624 (EJNMMI Radiopharmacy and Chemistry, 2023).
Bridge positions count the residues as written; N and C are the ends. Square brackets hold non-standard residues; d marks the D form. Peptide text beside a SMILES is read from it. * marks the point of attachment. DOTA = O=C(O)CN1CCN(CC(=O)O)CCN(CC(=O)*)CCN(CC(=O)O)CC1; dPhe(4-NHCONH2) = NC(=O)Nc1ccc(C[C@@H](N)C(=O)O)cc1; Dihydroorotyl(S) = O=C1C[C@@H](C(=O)*)NC(=O)N1; Phe(4-Cl) = N[C@@H](Cc1ccc(Cl)cc1)C(=O)O; Phe(4-NH2) = Nc1ccc(C[C@H](N)C(=O)O)cc1

System: H69 tumor-bearing mice
Assay: Dosimetry: absorbed dose per administered activity (MIRD, 25 g Olinda mouse phantom)
Format: in vivo
[1] = 25 g mouse phantom, alpha contribution weighted with RBE = 5

## C[C@@H](O)[C@@H]1NC(=O)[C@H](CCCCN)NC(=O)[C@@H](Cc2ccc(NC(N)=O)cc2)NC(=O)[C@H](Cc2ccc(NC(=O)[C@@H]3CC(=O)NC(=O)N3)cc2)NC(=O)[C@H](NC(=O)[C@H](Cc2ccc(Cl)cc2)NC(=O)CN2CCN(CC(=O)O)CCN(CC(=O)O)CCN(CC(=O)O)CC2)CSSC[C@@H](C(=O)N[C@H](Cc2ccc(O)cc2)C(N)=O)NC1=O [[^225Ac]Ac-DOTA-JR11] [metal not drawn] ({DOTA}-[Phe(4-Cl)][dC][Phe(4-NH2)](Dihydroorotyl(S))[dPhe(4-NHCONH2)]KTC[dY]-NH2; disulfide 2-7 (inferred); C-terminus assumed)
0.15 cm^3 water sphere S-value (IDAC-dose), alpha RBE = 5
  Absorbed dose per administered activity d(rt), Tumor (150 mg): 328.5 mGy/kBq
[1]
  Absorbed dose per administered activity d(rt), Heart: 11.2 mGy/kBq
  Absorbed dose per administered activity d(rt), Intestines: 40.3 mGy/kBq
  Absorbed dose per administered activity d(rt), Kidneys: 952.6 mGy/kBq
  Absorbed dose per administered activity d(rt), Liver: 271.4 mGy/kBq
  Absorbed dose per administered activity d(rt), Lungs: 37.2 mGy/kBq
  Absorbed dose per administered activity d(rt), Pancreas: 284.4 mGy/kBq
  Absorbed dose per administered activity d(rt), Skeleton: 0.1 mGy/kBq
  Absorbed dose per administered activity d(rt), Spleen: 76.4 mGy/kBq
  Absorbed dose per administered activity d(rt), Stomach Wall: 137.2 mGy/kBq
  Absorbed dose per administered activity d(rt), Total Body: 44.0 mGy/kBq
actinium-225, alpha RBE = 5
  T/K ratio (tumor/kidney absorbed dose ratio): 0.35
